Test results taken from publication PMC5601462.
Results are given in words; binding and its absence hold for the method and conditions named. Binding seen in cells or lysates may run through a third protein. Some results given as binding are weak or reduced against the parent protein; the word gives no strength.

The chains behind the UniProt entries cited, without tags or fusion partners.
UniProt Q9NQB0: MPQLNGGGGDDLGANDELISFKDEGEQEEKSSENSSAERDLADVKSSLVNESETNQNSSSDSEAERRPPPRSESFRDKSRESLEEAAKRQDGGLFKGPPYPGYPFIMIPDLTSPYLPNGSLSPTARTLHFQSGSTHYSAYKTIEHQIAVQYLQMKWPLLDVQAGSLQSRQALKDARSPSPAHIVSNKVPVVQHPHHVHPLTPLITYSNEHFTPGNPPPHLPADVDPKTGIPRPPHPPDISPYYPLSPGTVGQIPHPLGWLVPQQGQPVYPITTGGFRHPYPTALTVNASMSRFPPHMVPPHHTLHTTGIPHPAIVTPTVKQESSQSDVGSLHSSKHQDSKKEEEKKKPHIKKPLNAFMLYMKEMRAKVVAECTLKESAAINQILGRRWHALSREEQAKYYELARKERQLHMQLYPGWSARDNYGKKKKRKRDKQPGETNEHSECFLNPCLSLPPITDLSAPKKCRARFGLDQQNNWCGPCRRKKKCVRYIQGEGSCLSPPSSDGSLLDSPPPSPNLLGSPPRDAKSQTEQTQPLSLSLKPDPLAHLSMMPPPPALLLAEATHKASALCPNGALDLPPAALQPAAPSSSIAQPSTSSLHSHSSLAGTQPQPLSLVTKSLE
UniProt Q9UI95: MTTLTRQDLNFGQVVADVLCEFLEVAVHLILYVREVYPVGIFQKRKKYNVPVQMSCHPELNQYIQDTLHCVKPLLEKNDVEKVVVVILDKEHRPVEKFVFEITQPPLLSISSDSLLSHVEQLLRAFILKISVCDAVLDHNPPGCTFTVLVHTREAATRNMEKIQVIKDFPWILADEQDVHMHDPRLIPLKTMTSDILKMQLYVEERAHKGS
UniProt Q13257: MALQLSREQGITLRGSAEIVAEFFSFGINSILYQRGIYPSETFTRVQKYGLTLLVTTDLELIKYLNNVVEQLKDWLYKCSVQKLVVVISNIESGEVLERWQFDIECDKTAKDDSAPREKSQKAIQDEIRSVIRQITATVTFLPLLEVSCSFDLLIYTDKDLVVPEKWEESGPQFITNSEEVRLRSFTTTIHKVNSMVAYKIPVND

How the values were obtained:
T cell factor 4 (human) = T cell factor 4 (human) (UniProt Q9NQB0); assay: co-IP; lysates (RIPA buffer) of DPCs transduced with the vectors for 24 h; immunoprecipitated with TCF4 antibody or IgG (negative control), blotted for MAD2B (Fig. 4A) or MAD2B/β-catenin (Fig. 4C, with overexpression of β-catenin)
[1] = molecular target: mitotic arrest deficient protein MAD2B (human) (UniProt Q9UI95); assay: co-IP; reverse co-IP: lysates (RIPA buffer) of DPCs transduced with the vectors for 24 h; immunoprecipitated with MAD2B antibody or IgG (negative control), blotted for TCF4 (Fig. 4B)

Row | binding (T cell factor 4 (human)) | binding [1] | Substance
1 | binds | – | mitotic arrest deficient protein MAD2B (from UniProt Q9UI95 1-211)
2 | no binding | – | cell cycle checkpoint protein MAD2 (from UniProt Q13257 1-205)
3 | – | binds | T cell factor 4 (from UniProt Q9NQB0 1-619)
